The values that follow come from PubChem BioAssay AID248 (DTP/NCI, 2004).

The list shows only some results of the screen, not a fair sample: it is rich in T/C values a quarter to a half above the control, in often repeated tests (any T/C) and in doses without a T/C. Further doses and runs are listed elsewhere. T/C: endpoint of the treated group in % of that of the vehicle group. Some doses have a count of surviving animals in place of a T/C: the source files T/C as zero there, which appears to mark a toxic dose or a test without result, not a measured value. Some doses without a T/C left all or most animals alive at the check, yet need not have been tolerated: the source hardly ever lists a survival T/C far under the control, and the zero likely stands for such cases as well. Counts of survivors are from the toxicity check (mostly the fifth day) where no day follows; animals may have died later. Schedule codes are those of the source, read here as Q, the interval in days (D) or hours (H), X, the number of doses. Some doses were run more than once; the results are listed from low to high. Some schedule codes hold Z or #, which are not explained here. For survival time, the PubChem record calls one and a half times the control and up active, and a quarter to a half above the control has no call in these data; cut-offs in other NCI protocols can differ. Some T/C values carry the count of animals alive at the toxicity check (mostly the fifth day); where none is given, no animal had died by that day.

The assay concerns L1210 leukemia ip in BDF1 mice, survival T/C. The assay can be described thus: NCI In Vivo Anticancer Drug Screen. Data for tumor model L1210 Leukemia (intraperitoneal) in B6D2F1 (BDF1) mice. Conditions: higher T/C = longer survival.
Setting [1] is: T/C endpoint: mean survival time, dose: 100.0 mg/kg/injection, schedule: Q03HX016 (oral), vehicle: saline with Tween-80.

Consider `O=C1CN=C(c2ccc[nH]2)c2cc(Cl)ccc2N1`, for which the T/C by setting is: (T/C endpoint: mean survival time, dose: 25.0 mg/kg/injection, schedule: Q03HX024 (ip), vehicle: other) 137 % of control; (T/C endpoint: mean survival time, dose: 75.0 mg/kg/injection, schedule: Q01DX015 (ip), vehicle: other) 141 % of control; (T/C endpoint: mean survival time, dose: 100.0 mg/kg/injection, schedule: Q01DX009 (ip), vehicle: saline with Tween-80, evaluated on day 30) 126 % of control; (T/C endpoint: mean survival time, dose: 100.0 mg/kg/injection, schedule: Q01DX009 (ip), vehicle: saline with Tween-80, evaluated on day 40) 129 % of control; (T/C endpoint: mean survival time, dose: 100.0 mg/kg/injection, schedule: Q01DX009 (ip), vehicle: water) 140 % of control; (T/C endpoint: mean survival time, dose: 100.0 mg/kg/injection, schedule: Q03HX008 (oral), vehicle: saline with Tween-80) 136 % of control [8 of 10 alive]. For the same compound, the T/C reads like this: under setting [1], 140 % of control; (T/C endpoint: mean survival time, dose: 100.0 mg/kg/injection, schedule: Q03HX024 (oral), vehicle: saline with Tween-80) 147 % of control [8 of 10 alive]; (T/C endpoint: mean survival time, dose: 200.0 mg/kg/injection, schedule: Q01DX009 (ip), vehicle: Klucel (hydroxypropylcellulose) (HPC)) 130 % of control; (T/C endpoint: mean survival time, dose: 200.0 mg/kg/injection, schedule: Q01DX009 (ip), vehicle: saline with Tween-80, evaluated on day 30) 140 % of control; (T/C endpoint: mean survival time, dose: 200.0 mg/kg/injection, schedule: Q01DX009 (ip), vehicle: saline with Tween-80, evaluated on day 40) 140 % of control; (T/C endpoint: mean survival time, dose: 200.0 mg/kg/injection, schedule: Q01DX009 (ip), vehicle: water) 144 % of control [8 of 10 alive]. For the same compound, the T/C reads like this: (T/C endpoint: mean survival time, dose: 360.0 mg/kg/injection, schedule: Q01DX007 (oral), vehicle: other) 127 % of control [8 of 10 alive]; (T/C endpoint: median survival time, dose: 800.0 mg/kg/injection, schedule: Q01DX009 (sc), vehicle: steroid suspending solution) 138 % of control. Moreover, the survivor count runs as follows: (T/C endpoint: mean survival time, dose: 28.5 mg/kg/injection, schedule: Q01DX009 (ip), vehicle: clinical formulation) 3 of 10; (T/C endpoint: mean survival time, dose: 57.0 mg/kg/injection, schedule: Q01DX009 (ip), vehicle: clinical formulation) 0 of 10; under setting [1], 6 of 10; (T/C endpoint: mean survival time, dose: 114.0 mg/kg/injection, schedule: Q01DX009 (ip), vehicle: clinical formulation) 0 of 10; (T/C endpoint: mean survival time, dose: 200.0 mg/kg/injection, schedule: Q01DX006 (iv), vehicle: other) 2 of 10; (T/C endpoint: mean survival time, dose: 200.0 mg/kg/injection, schedule: Q03HX008 (oral), vehicle: saline with Tween-80) 0 of 8 and 2 of 10. The survivor count is, setting by setting: (T/C endpoint: mean survival time, dose: 200.0 mg/kg/injection, schedule: Q03HX016 (oral), vehicle: saline with Tween-80) 0 of 8 and 3 of 10; (T/C endpoint: mean survival time, dose: 200.0 mg/kg/injection, schedule: Q03HX024 (oral), vehicle: saline with Tween-80) 0 of 8 and 1 of 10; (T/C endpoint: mean survival time, dose: 400.0 mg/kg/injection, schedule: Q01DX009 (ip), vehicle: saline with Tween-80) 4 of 7 and 6 of 6; (T/C endpoint: mean survival time, dose: 400.0 mg/kg/injection, schedule: Q03HX008 (oral), vehicle: saline with Tween-80) 0 of 8; (T/C endpoint: mean survival time, dose: 400.0 mg/kg/injection, schedule: Q03HX016 (oral), vehicle: saline with Tween-80) 0 of 8; (T/C endpoint: mean survival time, dose: 400.0 mg/kg/injection, schedule: Q03HX024 (oral), vehicle: saline with Tween-80) 0 of 8. Besides, the survivor count by setting is: (T/C endpoint: mean survival time, dose: 400.0 mg/kg/injection, schedule: Q04DX003 (oral), vehicle: saline with Tween-80) 5 of 8; (T/C endpoint: mean survival time, dose: 450.0 mg/kg/injection, schedule: Q01DX Z (ip), vehicle: carboxymethylcellulose (CMC)) 0 of 6; (T/C endpoint: mean survival time, dose: 540.0 mg/kg/injection, schedule: Q01DX007 (oral), vehicle: other) 3 of 10; (T/C endpoint: mean survival time, dose: 800.0 mg/kg/injection, schedule: Q01DX001 (oral), vehicle: saline with Tween-80) 4 of 7; (T/C endpoint: mean survival time, dose: 800.0 mg/kg/injection, schedule: Q01DX009 (ip), vehicle: saline with Tween-80) 0 of 7; (T/C endpoint: mean survival time, dose: 800.0 mg/kg/injection, schedule: Q01DX009 (oral), vehicle: saline with Tween-80) 3 of 7. Moreover, the survivor count is 0 of 8 (T/C endpoint: mean survival time, dose: 800.0 mg/kg/injection, schedule: Q03HX008 (oral), vehicle: saline with Tween-80); 0 of 8 (T/C endpoint: mean survival time, dose: 800.0 mg/kg/injection, schedule: Q03HX016 (oral), vehicle: saline with Tween-80); 0 of 8 (T/C endpoint: mean survival time, dose: 800.0 mg/kg/injection, schedule: Q03HX024 (oral), vehicle: saline with Tween-80); 1 of 8 (T/C endpoint: mean survival time, dose: 800.0 mg/kg/injection, schedule: Q04DX003 (oral), vehicle: saline with Tween-80); 5 of 10 (T/C endpoint: mean survival time, dose: 960.0 mg/kg/injection, schedule: Q01DX001 (oral), vehicle: other); 4 of 10 (T/C endpoint: mean survival time, dose: 1280.0 mg/kg/injection, schedule: Q01DX001 (oral), vehicle: other). For the same compound, the survivor count reads like this: (T/C endpoint: median survival time, dose: 2.0 mg/kg/injection, schedule: Q01DX009 (ip), vehicle: clinical formulation) 10 of 10; (T/C endpoint: median survival time, dose: 128.0 mg/kg/injection, schedule: Q01DX001 (ip), vehicle: clinical formulation) 5 of 10; (T/C endpoint: median survival time, dose: 128.0 mg/kg/injection, schedule: Q08DX002 (ip), vehicle: clinical formulation) 5 of 10.

For the compound `CC(C)N1CCOC1c1ccccc1` (stereo not given), the survivor count (T/C endpoint: mean survival time, dose: 400.0 mg/kg/injection, schedule: Q04DX003 (ip), vehicle: saline) was 3 of 6.

As for `C1O[C@H]1[C@H]1CO1`, the survivor count was 0 of 6 (T/C endpoint: mean survival time, dose: 24.0 mg/kg/injection, schedule: Q01DX Z (ip), vehicle: saline); 2 of 4 (T/C endpoint: mean survival time, dose: 66.0 mg/kg/injection, schedule: Q01DX001 (ip), vehicle: saline); 0 of 4 (T/C endpoint: mean survival time, dose: 100.0 mg/kg/injection, schedule: Q01DX001 (ip), vehicle: saline); 0 of 4 (T/C endpoint: mean survival time, dose: 150.0 mg/kg/injection, schedule: Q01DX001 (ip), vehicle: saline). Besides, the T/C (T/C endpoint: mean survival time, dose: 44.0 mg/kg/injection, schedule: Q01DX001 (ip), vehicle: saline) was 125 % of control.

For `CC(C)(C)[Se]C(=N)N`, the survivor count is, setting by setting: (T/C endpoint: mean survival time, dose: 100.0 mg/kg/injection, schedule: Q01DX001 (ip), vehicle: saline with Tween-80) 0 of 6; (T/C endpoint: mean survival time, dose: 200.0 mg/kg/injection, schedule: Q01DX001 (ip), vehicle: saline with Tween-80) 0 of 6.

As to `CC(=O)c1cccc(NC(=O)Oc2ccc(-c3ccccc3)cc2)c1`, the survivor count by setting is: (T/C endpoint: mean survival time, dose: 200.0 mg/kg/injection, schedule: Q01DX009 (ip), vehicle: saline with Tween-80) 3 of 3; (T/C endpoint: mean survival time, dose: 400.0 mg/kg/injection, schedule: Q01DX001 (ip), vehicle: saline with Tween-80) 6 of 6.

Take `CC1COCC(C)N1C1=C(Cl)C(=O)c2ccccc2C1=O` (stereo not given): the survivor count is, setting by setting: (T/C endpoint: mean survival time, dose: 50.0 mg/kg/injection, schedule: Q01DX001 (ip), vehicle: carboxymethylcellulose (CMC)) 2 of 4; (T/C endpoint: mean survival time, dose: 100.0 mg/kg/injection, schedule: Q01DX001 (ip), vehicle: carboxymethylcellulose (CMC)) 0 of 4; (T/C endpoint: mean survival time, dose: 200.0 mg/kg/injection, schedule: Q01DX001 (ip), vehicle: carboxymethylcellulose (CMC)) 0 of 4; (T/C endpoint: mean survival time, dose: 400.0 mg/kg/injection, schedule: Q01DX001 (ip), vehicle: carboxymethylcellulose (CMC)) 0 of 4.
